The values that follow come from US20090149339A1.

Assay [1] addresses GST-KIAA0561 PDZ domain fusion protein (KIAA0561 AA948-1038; PDZ domain 1 of 1). Put plainly: G assay.
Assay [2] shares this target. Put plainly: A/G assays (told in text).

These are yes or no findings as the source states them, for the method shown. A result given as binding can be weak or reduced; the word gives no strength.

Consider SSKSKSSEESQTFFGLYKL (N-terminal biotin) [FasLigand C-terminal PL peptide AA23L-M, biotinylated], for which the binding entry in assay [1] and in assay [2] was “binds” in each case.

Regarding LNSCSNRRVYKKMPSIESDV (N-terminal biotin) [NMDA C-terminal PL peptide AA34.2L, biotinylated], the binding entry in assay [1] is given as “binds”.

For the molecule LASKSAEEGKQIPDSLSTDL (N-terminal biotin) [DOCK2 C-terminal PL peptide AA40L, biotinylated], in assay [1], the binding result is recorded as “binds”.
